Test results as given in paper PMC12514821.

The chains behind the UniProt entries cited, without tags or fusion partners.
UniProt P11142: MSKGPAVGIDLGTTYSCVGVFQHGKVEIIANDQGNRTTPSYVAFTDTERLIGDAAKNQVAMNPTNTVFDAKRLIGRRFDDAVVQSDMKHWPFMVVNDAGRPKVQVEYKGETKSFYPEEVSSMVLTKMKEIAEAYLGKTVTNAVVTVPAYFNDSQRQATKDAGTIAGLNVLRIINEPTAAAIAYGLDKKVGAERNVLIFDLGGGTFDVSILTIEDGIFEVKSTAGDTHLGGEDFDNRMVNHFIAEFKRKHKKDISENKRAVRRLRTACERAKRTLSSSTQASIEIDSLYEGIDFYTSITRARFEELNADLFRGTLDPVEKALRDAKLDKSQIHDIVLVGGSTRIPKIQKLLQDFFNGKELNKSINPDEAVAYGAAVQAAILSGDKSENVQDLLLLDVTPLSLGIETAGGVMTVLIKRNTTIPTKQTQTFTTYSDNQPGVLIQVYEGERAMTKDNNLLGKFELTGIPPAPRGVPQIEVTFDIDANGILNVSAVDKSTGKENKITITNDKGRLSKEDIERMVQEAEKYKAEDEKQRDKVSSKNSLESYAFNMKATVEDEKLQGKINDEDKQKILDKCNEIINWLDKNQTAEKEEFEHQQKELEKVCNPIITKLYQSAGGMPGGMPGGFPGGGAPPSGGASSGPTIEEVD

Biological target: T1, SFB-PDLIM4 (330AA) (UniProt P50479)
T1 sequence: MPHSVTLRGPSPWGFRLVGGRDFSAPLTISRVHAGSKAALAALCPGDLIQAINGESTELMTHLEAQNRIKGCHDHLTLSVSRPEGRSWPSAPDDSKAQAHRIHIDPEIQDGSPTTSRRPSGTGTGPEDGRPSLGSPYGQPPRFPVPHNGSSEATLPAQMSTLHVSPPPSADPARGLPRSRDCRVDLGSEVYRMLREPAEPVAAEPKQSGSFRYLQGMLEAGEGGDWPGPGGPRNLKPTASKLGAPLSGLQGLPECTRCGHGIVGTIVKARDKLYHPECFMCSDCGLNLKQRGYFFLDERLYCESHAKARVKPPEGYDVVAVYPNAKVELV
Test: affinity purification with mass spectrometry; co-immunoprecipitation of PDLIM4 from HEK-293T cells and mass spectrometry; hits cross-referenced with BioGRID

- binding: binds
Substance: HSC70 (endogenous) (from UniProt P11142 1-646)

These are yes or no findings as the source states them, for the method shown. Binding seen in cells or lysates may run through a third protein. Here binding means that the protein was enriched with, or labelled near, the bait; the list need not be complete.
